Measured values: PubChem BioAssay AID485353 (National Center for Advancing Translational Sciences (NCATS), 2010)
Among all 330,000 compounds or so, about 610 (0.18%) were called active. The shares of active, inactive and inconclusive entries below differ from those in the screen. Calls follow the shape of the full dose curve. Potencies beside an inconclusive call are fits to weak or partial responses and may not hold up.

Experiment: qHTS of Yeast-based Assay for SARS-CoV PLP; also: nearly all actives have a fitted effect of over 55% in size; as to activity, positive = growth rescue: 0% is about no effect
Conditions: S. cerevisiae expressing SARS-CoV PLpro; Potency: growth rescue; activity, positive = growth rescue: at 32.9 µM (top of the series)
Potency is read from the fitted curve at half-maximal effect.

| SMILES | Potency | activity, positive = growth rescue |
| --- | --- | --- |
| Cc1ccc(NCN2C(=O)C(=O)c3ccccc32)nc1 | inconclusive: 4.47 µM [activator, partial curve] | – |
| Cc1ccc(C(=O)O/N=C(\N)Cc2cccs2)c(Cl)c1 | inconclusive: 4.47 µM [activator, single point] | – |
| CC(=O)n1nc(-c2ccc(C)cc2)nc1NCc1ccc(F)cc1 | inconclusive: 0.355 µM [activator, full curve, poor fit] | – |
| COc1ccc(S(=O)(=O)Nc2ccc(F)cc2)cc1N(C)S(=O)(=O)c1ccc(Cl)cc1 | inconclusive: 4.47 µM [activator, single point] | – |
| COc1ccc(C(=O)N/C(=C\c2cn(S(=O)(=O)N(C)C)c3ccccc23)C(=O)N2CCN(C)CC2)cc1 | – | inactive: 0.436% |
| O=C(Cc1ccc2ccccc2c1)NC(Cc1ccccc1)C(=O)O (centres undefined) | inconclusive: 4.47 µM [activator, single point] | – |
| O=C(Nc1ccccc1F)c1ccccc1-c1ccccc1 | inconclusive: 22.4 µM [activator, partial curve] | – |
| COc1ccc2c(c1)OC[C@H]1[C@H]2N2C(=O)CN(Cc3ccc(C)cc3)C(=O)[C@@]2(C)[C@H]1c1ccccc1 | active: 11.2 µM | – |
| CCN1CCc2c(sc(NC(=O)Nc3ccc(Cl)c(Cl)c3)c2C(N)=O)C1 | inconclusive: 4.47 µM [activator, single point] | – |
| COc1ccc(C2(C)NC(=O)N(CC(=O)Nc3ccc(C)cc3Br)C2=O)cc1OC (centres undefined) | – | inactive: 1.63% |
| COc1ccccc1N1C[C@@H]2C[C@@H](c3ccco3)N3CCC[C@@]23C1=O | – | inactive: 0.0576% |
| COc1cc(/C=N/S(=O)(=O)c2ccccc2)cc(OC)c1O | inconclusive: 3.98 µM [activator, single point] | – |
| Cc1ccc(C)n1-c1ccc(N2CCOCC2)c(Br)c1 | inconclusive: 17.8 µM [activator, single point] | – |
| S=C(Cc1cccnc1)N1CCOCC1 | – | inactive: -22.3% |
| COc1ccc(/C=C/C(=O)NC(=S)Nc2ccc(S(=O)(=O)Nc3ccc(OC)nn3)cc2)cc1 | inconclusive: 3.55 µM [activator, partial curve, poor fit] | – |
| CCn1cc([N+](=O)[O-])c(C(=O)N2N=C(c3ccc(OC)cc3OC)CC2c2ccccc2O)n1 (centres undefined) | inconclusive: 22.4 µM [activator, single point] | – |
| Cc1ccccc1S(=O)(=O)Nc1ncnc2scc(-c3ccccc3)c12 | inconclusive: 11.2 µM [activator, partial curve] | – |
| O=C1OCc2cccc3cccc1c23 | inconclusive: 2.51 µM [activator, partial curve] | – |
| CC(NC(=O)c1cccc2ccccc12)c1ccc2c(c1)CCCC2 (centres undefined) | inconclusive: 4.47 µM [activator, single point] | – |
| O=C(COC(=O)C1=COCCO1)Nc1ccc(Oc2ccccc2)cc1 | – | inactive: -11.7% |
| Cc1cc(C)c2nc(NNC(=O)c3ccc(S(=O)(=O)N4CCc5ccccc5C4)cc3)sc2c1 | active: 5.62 µM | – |
| COc1ccccc1NC(=O)c1ccc(NC(=O)c2cc3c(s2)CCC3)cc1 | inconclusive: 17.8 µM [activator, partial curve] | – |
| Cc1ccc(S(=O)(=O)CCC(=O)Oc2ccc3c(C)cc(=O)oc3c2)cc1 | – | inactive: 0.799% |

By substructure: the entries above with bromine (2)

| SMILES | Potency | activity, positive = growth rescue |
| --- | --- | --- |
| COc1ccc(C2(C)NC(=O)N(CC(=O)Nc3ccc(C)cc3Br)C2=O)cc1OC (centres undefined) | – | inactive: 1.63% |
| Cc1ccc(C)n1-c1ccc(N2CCOCC2)c(Br)c1 | inconclusive: 17.8 µM [activator, single point] | – |

Next part:

| SMILES | Potency | activity, positive = growth rescue |
| --- | --- | --- |
| Cc1csc(N/N=C/c2ccc(O)c([N+](=O)[O-])c2)n1 | active: 10 µM | – |
| O=C(CCCCCN1C(=O)C2C3C=CC(C3)C2C1=O)Nc1nccs1 (centres undefined) | inconclusive: 2.82 µM [activator, partial curve] | – |
| COc1cc(/C=N/NC(=O)C(=O)NCc2cccnc2)ccc1O | inconclusive: 20 µM [activator, partial curve] | – |
| COc1cc(OC)c(NC(=O)CN(C)S(=O)(=O)c2ccc(-c3ccc(=O)[nH]n3)s2)cc1Cl | inconclusive: 4.47 µM [activator, single point] | – |
| CN(CCOc1ccc(-c2ccn(S(=O)(=O)c3cccc4ccccc34)n2)cc1)c1ccccn1 | inconclusive: 11.2 µM [activator, single point] | – |
| Cc1cc(C(F)F)n2nc(C(=O)Nc3sc4c(c3C(N)=O)CCC4)nc2n1 | inconclusive: 12.6 µM [activator, single point] | – |
| COc1cccc2cc(/C(C)=N/Nc3nc(-c4cc(C)ccc4C)cs3)c(=O)oc12 | inconclusive: 20 µM [activator, single point] | – |
| O=C(NC(=O)c1ccc(F)cc1)Nc1nc(-c2cccs2)cc(C(F)(F)F)n1 | inconclusive: 2.24 µM [activator, partial curve] | – |
| Cc1ccc(S(=O)(=O)CCc2nnc(N)s2)cc1 | inconclusive: 20 µM [activator, single point] | – |
| Cc1ccccc1CSc1nc2ccccc2c(=O)n1C | – | inactive: 4.08% |
| O=C(c1ccc(C(F)(F)F)cc1)C1CCCN(C(=O)CN2CCCC2=O)C1 (centres undefined) | – | inactive: -3.44% |
| O=C(COc1cccc(NC(=O)c2cccc([N+](=O)[O-])c2)c1)c1ccc(Br)cc1 | inconclusive: 11.2 µM [activator, partial curve] | – |
| CC(C)Oc1ccc(C(=O)NC2CCCCC2)cc1 | – | inactive: -1.31% |
| CC(C)NC(=O)CCCn1c(=S)[nH]c2cc3c(cc2c1=O)OCO3 | inconclusive: 0.316 µM [activator, full curve, poor fit] | – |
| CCCOc1c(Cl)cc(/C=N/O)cc1OCC | – | inactive: -40.4% |
| CC(C)(/C=N/O)N(O)C=C1C=CC(=O)C=C1 | – | inactive: -0.931% |
| Cc1c(NC(=O)c2cccs2)cccc1[N+](=O)[O-] | – | inactive: -0.751% |
| CC(C)Cn1cnc2c1c(=O)[nH]c(=O)n2Cc1ccccc1 | – | inactive: 1.63% |
| CN1CCC(NC(=O)c2cc(-c3cccc(Br)c3)nc3ccccc23)CC1 | – | inactive: 2.71% |
| O=C(NCC1COc2ccccc2O1)c1ccc(NC(=O)C2CCCO2)cc1 (centres undefined) | inconclusive: 4.47 µM [activator, single point] | – |
| Cc1ccc(C(N)=S)c(C)c1 | inconclusive: 20 µM [activator, single point] | – |
| C=CCn1c(-c2ccc(Cl)cc2)c[nH]c1=S | inconclusive: 14.1 µM [activator, partial curve] | – |
| C=C(C)COc1ccc(-c2[nH]ncc2-c2ccc(OC)c(OC)c2)c(O)c1 | inconclusive: 2.82 µM [activator, single point] | – |

2 consecutive records out of the list so far, quoted:

| SMILES | Potency | activity, positive = growth rescue |
| --- | --- | --- |
| COc1cc(/C=N/S(=O)(=O)c2ccccc2)cc(OC)c1O | inconclusive: 3.98 µM [activator, single point] | – |
| Cc1ccc(C)n1-c1ccc(N2CCOCC2)c(Br)c1 | inconclusive: 17.8 µM [activator, single point] | – |

Remaining list, next part

| SMILES | Potency | activity, positive = growth rescue |
| --- | --- | --- |
| Cn1c(CNC(=O)c2ccco2)nnc1SCC(=O)c1ccc(F)cc1 | inconclusive: 14.1 µM [activator, single point] | – |
| O=C(Nc1ccc(OCC(=O)N2CCOCC2)cc1)Nc1cccc(Cl)c1 | – | inactive: -0.857% |
| Cc1nn(-c2ccc(N3CCCCC3)nn2)c(C)c1CCC(=O)Nc1cc(F)ccc1F | inconclusive: 3.55 µM [activator, single point] | – |
| O=[N+]([O-])c1ccccc1-c1nc(-c2ccc(Br)o2)no1 | inconclusive: 4.47 µM [activator, partial curve] | – |
| COc1ccc(C(=O)NCC(=O)N/N=C(\C)Cc2ccccc2)cc1 | inconclusive: 22.4 µM [activator, partial curve] | – |
| CCCN1C(=O)SC(CC(=O)Nc2ccc(C)cc2)C1=O (centres undefined) | active: 11.2 µM | – |
| Cc1cc(C)cc(OCC(=O)NN2C(=O)c3ccccc3C2=O)c1 | inconclusive: 7.94 µM [activator, partial curve] | – |
| CN(C)CCCNc1c(C(=O)O)cnc2c1cnn2C | inconclusive: 20 µM [activator, single point] | – |
| CCOC(=O)N1CCN(C(=O)CCS(=O)(=O)c2cc3c(cc2Cl)NC(=O)CO3)CC1 | inconclusive: 3.98 µM [activator, single point] | – |
| NC(N)=N/N=C/c1cc([N+](=O)[O-])ccc1O | inconclusive: 8.91 µM [activator, partial curve] | – |
| C#CCOCCOCCOCCNc1nc(N2CCOCC2)nc(N2CCN(C(=O)[C@H](Cc3ccc(O)cc3)n3cc([C@@H](N)CC(C)C)nn3)CC2)n1 | – | inactive: 0.232% |
| Cc1ccc(C)c(N=Nc2ccc(O)c3ncccc23)c1 | inconclusive: 4.47 µM [activator, partial curve] | – |
| S=C(N/N=C/c1ccccc1)N1CCOCC1 | inconclusive: 2 µM [activator, full curve] | – |
| CCOC(=O)c1c(-c2ccc(F)cc2)cn2ccccc12 | inconclusive: 3.16 µM [activator, partial curve] | – |
| CCC(=O)NC(c1ccc(C)cc1)c1cc(Cl)c2cccnc2c1O (centres undefined) | inconclusive: 1.12 µM [activator, full curve] | – |
| COc1ccc(C)cc1NC(=S)N1CC(C)OC(C)C1 (centres undefined) | inconclusive: 3.55 µM [activator, single point] | – |
| Cc1cc(C(=O)OCC(=O)N2c3ccccc3NC(=O)C2(C)C)c(C)n1-c1ccccc1 | inconclusive: 0.316 µM [activator, partial curve, poor fit] | – |
| COc1ccc(S(=O)(=O)N(Cc2ccccc2)c2ccccc2C(=O)N2CCOCC2)cc1 | – | inactive: -2.28% |
| NC(=O)[C@H]1CC2(CC(c3cccc(NC(=O)[C@H]4CCC(=O)N4)c3)=NO2)CN1C(=O)c1cc([N+](=O)[O-])cc([N+](=O)[O-])c1 (some centres undefined) | – | inactive: 0.584% |
| O=C(NC(Cc1ccccc1)C(=O)O)/C(=C\c1ccco1)NC(=O)c1ccc(Br)cc1 (centres undefined) | – | inactive: 3.25% |
| Cc1ccc(NS(=O)(=O)c2cc(C(=O)Nc3cccc([N+](=O)[O-])c3)ccc2C)cc1 | inconclusive: 1.26 µM [activator, partial curve] | – |
| COC(=O)c1cc(NC(=S)NC(=O)c2ccccc2)ccc1N1CCOCC1 | inconclusive: 0.794 µM [activator, full curve] | – |
| CCOCCCn1c(C)nc2c(c1=O)c1nc3ccccc3nc1n2CCC1=CCCCC1 | inconclusive: 20 µM [activator, single point] | – |
